# Measurements: publication PMC11197489
# By UniProt entry, the sequences of proteins in these tests, tags left out. Residues count along the entry.
# UniProt Q9Z2C8, whole entry: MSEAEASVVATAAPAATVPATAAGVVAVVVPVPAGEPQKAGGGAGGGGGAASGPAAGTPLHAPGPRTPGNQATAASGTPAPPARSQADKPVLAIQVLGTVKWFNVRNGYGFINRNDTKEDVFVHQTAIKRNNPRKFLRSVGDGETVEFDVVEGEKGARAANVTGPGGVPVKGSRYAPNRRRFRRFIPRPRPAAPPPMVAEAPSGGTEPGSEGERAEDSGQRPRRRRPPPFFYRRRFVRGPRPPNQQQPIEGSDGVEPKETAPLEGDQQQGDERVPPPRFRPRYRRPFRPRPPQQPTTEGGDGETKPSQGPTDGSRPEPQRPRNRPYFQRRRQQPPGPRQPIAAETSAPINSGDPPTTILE
# UniProt Q9Y2T7, 85-177: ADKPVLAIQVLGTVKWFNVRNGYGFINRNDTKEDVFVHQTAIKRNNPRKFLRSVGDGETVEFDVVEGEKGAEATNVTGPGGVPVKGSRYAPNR
# Experiments:
# [1] = molecular target: YBX2 from testis lysate (UniProt Q9Z2C8); assay: pull-down; settings: pull-down: 100 mM NaCl, 10 mM Tris-HCl pH 7.6, 2 mM EDTA, 0.5% NP-40, 4 C, protein in an extract, label: 5' biotin
# [2] = molecular target: hYBX2 CSD (EMSA WT) (human) (UniProt Q9Y2T7); assay: EMSA; settings: m5C at positions 11 and 13; EMSA: 50 mM Tris-HCl pH 7.5, 100 mM NaCl, 0.4 mM EDTA, 0.1% NP-40, 1 mM DTT, 50% glycerol, BSA, on ice, 0.2% glutaraldehyde; recombinant protein; protein details: His6-SUMO removed by Ulp1; label: 5' biotin
sequence,measurement,setting,value
AGAGUGAAACUCCAUCUCAAAC [pull-down m5C RNA],binding result,[1]; m5C at positions 12 and 13,binds
CGACGGCGGUCUCGGGAACC [EMSA m5C RNA],binding result,[2],binds
AGAGUGAAACUCCAUCUCAAAC [pull-down unme-C RNA],binding result,[1],binds more weakly

# Construct, isoform or probe ends are uncertain for at least one entry. For part of these data: Where cells or extracts were used, other partners may take part. For part of these data: The comparison behind a weaker result is the experiment's own reference, which may not be listed here. At least one verdict was read from the data and is not stated in words by the source.
